# Source: the supplement of paper PMC8728848
# This is one part of the list.
# Key:
# Assay in all cases: glycan array binding signal (z-score within array); higher = stronger binding
# Conditions in all cases: glycan notation: IUPAC condensed, linker removed
# [1] = target: Gal(b1-3)GlcNAc(b1-2)Man(a1-3)[Gal(b1-3)GlcNAc(b1-2)Man(a1-6)]Man(b1-4)GlcNAc(b1-4)[Fuc(a1-6)]GlcNAc
# In short: (§1)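 The binding signal is a Z-score computed within each array and averaged over linkers. Arrays of the same protein sequence at different concentrations or buffers were also averaged together. Data originate from 3228 arrays in the Consortium for Functional Glycomics database, kept only where the protein sequence was available.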
# [2] = target: Gal(b1-3)GlcNAc(b1-2)Man(a1-3)[GlcNAc(b1-4)][Gal(b1-3)GlcNAc(b1-2)Man(a1-6)]Man(b1-4)GlcNAc(b1-4)GlcNAc
# In short: as §1
# [3] = target: Gal(b1-3)GlcNAc(b1-2)[Gal(b1-3)GlcNAc(b1-6)]Man(a1-6)[Gal(b1-3)GlcNAc(b1-2)Man(a1-3)]Man(b1-4)GlcNAc(b1-4)GlcNAc
# In short: as §1
# [4] = target: Gal(b1-3)GlcNAc(b1-3)Gal(b1-3)GlcNAc
# In short: as §1
# [5] = target: Gal(b1-3)GlcNAc(b1-3)Gal(b1-4)Glc
# In short: as §1
# [6] = target: Gal(b1-3)GlcNAc(b1-3)Gal(b1-4)GlcNAc
# In short: as §1
# [7] = target: Gal(b1-3)GlcNAc(b1-3)Gal(b1-4)GlcNAc(b1-2)Man(a1-3)[Gal(b1-3)GlcNAc(b1-3)Gal(b1-4)GlcNAc(b1-2)Man(a1-6)]Man(b1-4)GlcNAc(b1-4)GlcNAc
# In short: as §1
# [8] = target: Gal(b1-3)GlcNAc(b1-3)Gal(b1-4)GlcNAc(b1-2)[Gal(b1-3)GlcNAc(b1-3)Gal(b1-4)GlcNAc(b1-6)]Man(a1-6)[Gal(b1-3)GlcNAc(b1-3)Gal(b1-4)GlcNAc(b1-2)Man(a1-3)]Man(b1-4)GlcNAc(b1-4)[Fuc(a1-6)]GlcNAc
# In short: as §1
# [9] = target: Gal(b1-3)GlcNAc(b1-3)Gal(b1-4)GlcNAc(b1-3)Gal(b1-4)GlcNAc(b1-2)[Gal(b1-3)GlcNAc(b1-3)Gal(b1-4)GlcNAc(b1-3)Gal(b1-4)GlcNAc(b1-6)]Man(a1-6)[Gal(b1-3)GlcNAc(b1-3)Gal(b1-4)GlcNAc(b1-3)Gal(b1-4)GlcNAc(b1-2)Man(a1-3)]Man(b1-4)GlcNAc(b1-4)[Fuc(a1-6)]GlcNAc
# In short: as §1
# [10] = target: Gal(b1-3)GlcNAc(b1-3)Gal(b1-4)GlcNAc(b1-6)[Gal(b1-3)GlcNAc(b1-3)]Gal(b1-4)Glc
# In short: as §1
# [11] = target: Gal(b1-3)GlcNAc(b1-3)Gal(b1-4)[Fuc(a1-3)]GlcNAc
# In short: as §1
# [12] = target: Gal(b1-3)GlcNAc(b1-3)Gal(b1-4)[Fuc(a1-3)]GlcNAc(b1-6)[Gal(b1-3)GlcNAc(b1-3)]Gal(b1-4)Glc
# In short: as §1
# [13] = target: Gal(b1-3)GlcNAc(b1-3)GalNAc
# In short: as §1
# [14] = target: Gal(b1-3)GlcNAc(b1-6)Gal(b1-4)GlcNAc
# In short: as §1
# [15] = target: Gal(b1-3)GlcNAc(b1-6)GalNAc
# In short: as §1
# [16] = target: Gal(b1-3)GlcNAc(b1-6)[Gal(b1-3)]GalNAc
# In short: as §1
# [17] = target: Gal(b1-3)GlcNAc6S
# In short: as §1
# [18] = target: Gal(b1-3)[Fuc(a1-4)]GlcNAc
# In short: as §1
# [19] = target: Gal(b1-3)[Fuc(a1-4)]GlcNAc(b1-2)Man
# In short: as §1
# [20] = target: Gal(b1-3)[Fuc(a1-4)]GlcNAc(b1-2)Man(a1-3)[Gal(b1-3)[Fuc(a1-4)]GlcNAc(b1-2)Man(a1-6)]Man(b1-4)GlcNAc(b1-4)[Fuc(a1-6)]GlcNAc
# In short: as §1
# [21] = target: Gal(b1-3)[Fuc(a1-4)]GlcNAc(b1-3)Gal(b1-3)[Fuc(a1-4)]GlcNAc
# In short: as §1
# [22] = target: Gal(b1-3)[Fuc(a1-4)]GlcNAc(b1-3)Gal(b1-4)[Fuc(a1-3)]GlcNAc
# In short: as §1
# [23] = target: Gal(b1-3)[Fuc(a1-4)]GlcNAc(b1-6)GalNAc
# In short: as §1
# [24] = target: Gal(b1-3)[GlcNAc(b1-6)]GalNAc
# In short: as §1
# [25] = target: Gal(b1-3)[Neu5Ac(a2-6)]GalNAc
# In short: as §1
# [26] = target: Gal(b1-3)[Neu5Ac(a2-6)]GlcNAc(b1-4)Gal(b1-4)Glc
# In short: as §1
# [27] = target: Gal(b1-3)[Neu5Ac(b2-6)]GalNAc
# In short: as §1
# [28] = target: Gal(b1-4)Gal
# In short: as §1
# [29] = target: Gal(b1-4)GalNAc(a1-3)[Fuc(a1-2)]Gal(b1-4)GlcNAc
# In short: as §1
# [30] = target: Gal(b1-4)GalNAc(b1-3)[Fuc(a1-2)]Gal(b1-4)GlcNAc
# In short: as §1
# [31] = target: Gal(b1-4)Glc
# In short: as §1
# [32] = target: Gal(b1-4)Glc6S
# In short: as §1
# [33] = target: Gal(b1-4)GlcNAc
# In short: as §1
# [34] = target: Gal(b1-4)GlcNAc(a1-6)Gal(b1-4)GlcNAc
# In short: as §1
# [35] = target: Gal(b1-4)GlcNAc(b1-2)Man
# In short: as §1
# [36] = target: Gal(b1-4)GlcNAc(b1-2)Man(a1-3)Man(b1-4)GlcNAc(b1-4)GlcNAc
# In short: as §1
# [37] = target: Gal(b1-4)GlcNAc(b1-2)Man(a1-3)[Gal(b1-4)GlcNAc(b1-2)Man(a1-6)]Man(b1-4)GlcNAc(b1-4)GlcNAc
# In short: as §1
# [38] = target: Gal(b1-4)GlcNAc(b1-2)Man(a1-3)[Gal(b1-4)GlcNAc(b1-2)Man(a1-6)]Man(b1-4)GlcNAc(b1-4)[Fuc(a1-6)]GlcNAc
# In short: as §1
# [39] = target: Gal(b1-4)GlcNAc(b1-2)Man(a1-3)[Gal(b1-4)GlcNAc(b1-2)Man(a1-6)][Gal(b1-4)GlcNAc(b1-4)]Man(b1-4)GlcNAc(b1-4)[Fuc(a1-6)]GlcNAc
# In short: as §1
# [40] = target: Gal(b1-4)GlcNAc(b1-2)Man(a1-3)[Gal(b1-4)GlcNAc(b1-2)Man(a1-6)][GlcNAc(b1-4)]Man(b1-4)GlcNAc(b1-4)[Fuc(a1-6)]GlcNAc
# In short: as §1
# [41] = target: Gal(b1-4)GlcNAc(b1-2)Man(a1-3)[GlcNAc(b1-2)Man(a1-6)]Man(b1-4)GlcNAc(b1-4)GlcNAc
# In short: as §1
# [42] = target: Gal(b1-4)GlcNAc(b1-2)Man(a1-3)[GlcNAc(b1-4)][Gal(b1-4)GlcNAc(b1-2)Man(a1-6)]Man(b1-4)GlcNAc(b1-4)GlcNAc
# In short: as §1
# [43] = target: Gal(b1-4)GlcNAc(b1-2)Man(a1-3)[Man(a1-6)]Man(b1-4)GlcNAc(b1-4)GlcNAc
# In short: as §1
# [44] = target: Gal(b1-4)GlcNAc(b1-2)Man(a1-6)Man(b1-4)GlcNAc(b1-4)GlcNAc
# In short: as §1
# [45] = target: Gal(b1-4)GlcNAc(b1-2)Man(a1-6)[GlcNAc(b1-2)Man(a1-3)]Man(b1-4)GlcNAc(b1-4)GlcNAc
# In short: as §1
binder,measurement,setting,value
Pwp7 (Candida glabrata) (protein) MGSSHHHHHHSSGLVPRGSHMASKNPVDFPNLCQYPNLDGAVAGFDTEIYNADPSILINFSLWPILQFPKEWHKTIGRAITTQTNFKLPASDTTLFGVSIPTQNILIEFRGYFIPPKSGTYTFALYLTDDGSAMFLGNDAAFPCGNITSWSNPTNDQVSVSDYDPKKKTLTVYMVAGVAYPLRIAYYNREKGGSLTASFVDPDGLTHSDWNGYIWTLPSCDNCKYS,glycan array binding signal (z-score),[1],-0.097
same,glycan array binding signal (z-score),[2],0.548
same,glycan array binding signal (z-score),[3],-0.145
same,glycan array binding signal (z-score),[4],0.566
same,glycan array binding signal (z-score),[5],-0.182
same,glycan array binding signal (z-score),[6],0.865
same,glycan array binding signal (z-score),[7],0.525
same,glycan array binding signal (z-score),[8],1.75
same,glycan array binding signal (z-score),[9],1.14
same,glycan array binding signal (z-score),[10],0.116
same,glycan array binding signal (z-score),[11],-0.155
same,glycan array binding signal (z-score),[12],-0.208
same,glycan array binding signal (z-score),[13],-0.469
same,glycan array binding signal (z-score),[14],-1.71
same,glycan array binding signal (z-score),[15],-0.026
same,glycan array binding signal (z-score),[16],-0.235
same,glycan array binding signal (z-score),[17],-0.583
same,glycan array binding signal (z-score),[18],-0.451
same,glycan array binding signal (z-score),[19],0.048
same,glycan array binding signal (z-score),[20],-0.168
same,glycan array binding signal (z-score),[21],0.12
same,glycan array binding signal (z-score),[22],-0.283
same,glycan array binding signal (z-score),[23],1.24
same,glycan array binding signal (z-score),[24],-0.72
same,glycan array binding signal (z-score),[25],0.262
same,glycan array binding signal (z-score),[26],-0.158
same,glycan array binding signal (z-score),[27],-0.067
same,glycan array binding signal (z-score),[28],0.505
same,glycan array binding signal (z-score),[29],-0.567
same,glycan array binding signal (z-score),[30],-0.901
same,glycan array binding signal (z-score),[31],-0.623
same,glycan array binding signal (z-score),[32],-0.762
same,glycan array binding signal (z-score),[33],-1.14
same,glycan array binding signal (z-score),[34],-0.777
same,glycan array binding signal (z-score),[35],0.68
same,glycan array binding signal (z-score),[36],0.971
same,glycan array binding signal (z-score),[37],0.667
same,glycan array binding signal (z-score),[38],0.269
same,glycan array binding signal (z-score),[39],-0.544
same,glycan array binding signal (z-score),[40],-0.54
same,glycan array binding signal (z-score),[41],1.61
same,glycan array binding signal (z-score),[42],-0.3
same,glycan array binding signal (z-score),[43],1.95
same,glycan array binding signal (z-score),[44],0.711
same,glycan array binding signal (z-score),[45],1.31

# Ten entries from above, bar-delimited.
binder | measurement | setting | value
Pwp7 (Candida glabrata) (protein) MGSSHHHHHHSSGLVPRGSHMASKNPVDFPNLCQYPNLDGAVAGFDTEIYNADPSILINFSLWPILQFPKEWHKTIGRAITTQTNFKLPASDTTLFGVSIPTQNILIEFRGYFIPPKSGTYTFALYLTDDGSAMFLGNDAAFPCGNITSWSNPTNDQVSVSDYDPKKKTLTVYMVAGVAYPLRIAYYNREKGGSLTASFVDPDGLTHSDWNGYIWTLPSCDNCKYS | glycan array binding signal (z-score) | [32] | -0.762
same | glycan array binding signal (z-score) | [33] | -1.14
same | glycan array binding signal (z-score) | [34] | -0.777
same | glycan array binding signal (z-score) | [35] | 0.68
same | glycan array binding signal (z-score) | [36] | 0.971
same | glycan array binding signal (z-score) | [37] | 0.667
same | glycan array binding signal (z-score) | [38] | 0.269
same | glycan array binding signal (z-score) | [39] | -0.544
same | glycan array binding signal (z-score) | [40] | -0.54
same | glycan array binding signal (z-score) | [41] | 1.61
